# Data: the supplement of paper PMC8728848
# The other results are listed elsewhere or left out.
# B1: HA-00510 (Pseudomonas aeruginosa), Q02V39_PSEAB (protein)
# chain: GVPIVNIATPNGAGLSNNHFRDYNVGANGLILNNATGKTQGTQLGGIILGNPNLKGQAAQVILNQVTGGNRSTLAGYTEVAGQSARVIVANPHGITCQGCGFINTPRATLTTGKPIMDGQRLERFQVDGGDIVVEGAELNVGNLEQFDLITRSAKLNAKLYAKNLNIVTGRNDVQADSLQATPRAADGSEKPQLAIDSSALGGMYAGAIRLVGTEQGVGVKLAGDMAASGGDIRIDASGKLSLAQASSQGDLKIAAQAVELNGKTYAGGSAEIRSAEELVNRQS
# Assays:
# Assay in all cases: glycan array binding signal (z-score within array); higher = stronger binding
# Settings in all cases: glycan notation: IUPAC condensed, linker removed
# [1] = molecular target: Fuc(a1-2)Gal(b1-4)GlcNAc(b1-3)Gal(b1-4)GlcNAc(b1-2)Man(a1-3)[Fuc(a1-2)Gal(b1-4)GlcNAc(b1-3)Gal(b1-4)GlcNAc(b1-2)Man(a1-6)]Man(b1-4)GlcNAc(b1-4)GlcNAc
# Summary of the method: (§1)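 The binding signal is a Z-score computed within each array. Data were drawn from 3228 arrays in the Consortium for Functional Glycomics database, restricted to those with a known protein sequence. Scores were averaged over arrays of the same protein sequence at different concentrations or buffers, and over linkers, and negative values can be taken as non-binding.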
# [2] = molecular target: Fuc(a1-2)Gal(b1-4)GlcNAc(b1-3)Gal(b1-4)GlcNAc(b1-3)Gal(b1-4)GlcNAc
# Summary of the method: as §1
# [3] = molecular target: Fuc(a1-2)Gal(b1-4)GlcNAc(b1-3)GalNAc
# Summary of the method: as §1
# [4] = molecular target: Fuc(a1-2)Gal(b1-4)GlcNAc(b1-3)[Fuc(a1-2)Gal(b1-4)GlcNAc(b1-6)]GalNAc
# Summary of the method: as §1
# [5] = molecular target: Fuc(a1-2)Gal(b1-4)GlcNAc(b1-3)[Fuc(a1-3)[Gal(b1-4)]GlcNAc(b1-6)]Gal(b1-4)Glc
# Summary of the method: as §1
# [6] = molecular target: Fuc(a1-2)Gal(b1-4)GlcNAc(b1-6)GalNAc
# Summary of the method: as §1
# [7] = molecular target: Fuc(a1-2)Gal(b1-4)GlcNAc6S
# Summary of the method: as §1
# [8] = molecular target: Fuc(a1-2)Gal(b1-4)[Fuc(a1-3)]GlcNAc
# Summary of the method: as §1
# [9] = molecular target: Fuc(a1-2)Gal(b1-4)[Fuc(a1-3)]GlcNAc(b1-2)Man(a1-3)[Fuc(a1-2)Gal(b1-4)[Fuc(a1-3)]GlcNAc(b1-2)Man(a1-6)]Man(b1-4)GlcNAc(b1-4)[Fuc(a1-6)]GlcNAc
# Summary of the method: as §1
# [10] = molecular target: Fuc(a1-2)Gal(b1-4)[Fuc(a1-3)]GlcNAc(b1-2)[Fuc(a1-2)Gal(b1-4)[Fuc(a1-3)]GlcNAc(b1-4)]Man(a1-3)[Fuc(a1-2)Gal(b1-4)[Fuc(a1-3)]GlcNAc(b1-2)Man(a1-6)]Man(b1-4)GlcNAc(b1-4)GlcNAc
# Summary of the method: as §1
# [11] = molecular target: Fuc(a1-2)Gal(b1-4)[Fuc(a1-3)]GlcNAc(b1-3)Gal(b1-4)[Fuc(a1-3)]GlcNAc
# Summary of the method: as §1
# [12] = molecular target: Fuc(a1-2)Gal(b1-4)[Fuc(a1-3)]GlcNAc(b1-3)Gal(b1-4)[Fuc(a1-3)]GlcNAc(b1-3)Gal(b1-4)[Fuc(a1-3)]GlcNAc
# Summary of the method: as §1
# [13] = molecular target: Fuc(a1-2)Gal(b1-4)[Fuc(a1-3)]GlcNAc(b1-3)GalNAc
# Summary of the method: as §1
# [14] = molecular target: Fuc(a1-2)Gal(b1-4)[Fuc(a1-3)]GlcNAc(b1-3)[Neu5Ac(a2-6)Gal(b1-4)GlcNAc(b1-6)]Gal(b1-4)Glc
# Summary of the method: as §1
# [15] = molecular target: Fuc(a1-2)Gal3S(b1-4)GlcNAc
# Summary of the method: as §1
# [16] = molecular target: Fuc(a1-2)Gal6S(b1-3)GlcNAc
# Summary of the method: as §1
# [17] = molecular target: Fuc(a1-2)Gal6S(b1-3)GlcNAc6S
# Summary of the method: as §1
# Fuc(a1-2)Gal6S(b1-4)Glc = molecular target: Fuc(a1-2)Gal6S(b1-4)Glc
# Summary of the method: as §1
# [18] = molecular target: Fuc(a1-2)Gal6S(b1-4)Glc6S
# Summary of the method: as §1
# Fuc(a1-2)[Gal(a1-3)]Gal = molecular target: Fuc(a1-2)[Gal(a1-3)]Gal
# Summary of the method: as §1
# [19] = molecular target: Fuc(a1-2)[Gal(a1-3)]Gal(b1-3)GalNAc
# Summary of the method: as §1
# [20] = molecular target: Fuc(a1-2)[Gal(a1-3)]Gal(b1-3)GalNAc(b1-3)Gal(a1-4)Gal(b1-4)Glc
# Summary of the method: as §1
# [21] = molecular target: Fuc(a1-2)[Gal(a1-3)]Gal(b1-3)GlcNAc
# Summary of the method: as §1
# [22] = molecular target: Fuc(a1-2)[Gal(a1-3)]Gal(b1-3)GlcNAc(b1-2)Man(a1-3)[Fuc(a1-2)[Gal(a1-3)]Gal(b1-3)GlcNAc(b1-2)Man(a1-6)]Man(b1-4)GlcNAc(b1-4)GlcNAc
# Summary of the method: as §1
# [23] = molecular target: Fuc(a1-2)[Gal(a1-3)]Gal(b1-3)GlcNAc(b1-2)Man(a1-3)[Fuc(a1-2)[Gal(a1-3)]Gal(b1-3)GlcNAc(b1-2)Man(a1-6)]Man(b1-4)GlcNAc(b1-4)[Fuc(a1-6)]GlcNAc
# Summary of the method: as §1
# [24] = molecular target: Fuc(a1-2)[Gal(a1-3)]Gal(b1-3)GlcNAc(b1-3)GalNAc
# Summary of the method: as §1
# [25] = molecular target: Fuc(a1-2)[Gal(a1-3)]Gal(b1-3)GlcNAc(b1-6)GalNAc
# Summary of the method: as §1
# [26] = molecular target: Fuc(a1-2)[Gal(a1-3)]Gal(b1-4)Glc
# Summary of the method: as §1
# [27] = molecular target: Fuc(a1-2)[Gal(a1-3)]Gal(b1-4)GlcNAc
# Summary of the method: as §1
# [28] = molecular target: Fuc(a1-2)[Gal(a1-3)]Gal(b1-4)GlcNAc(b1-2)Man
# Summary of the method: as §1
# [29] = molecular target: Fuc(a1-2)[Gal(a1-3)]Gal(b1-4)GlcNAc(b1-2)Man(a1-3)[Fuc(a1-2)[Gal(a1-3)]Gal(b1-4)GlcNAc(b1-2)Man(a1-6)]Man(b1-4)GlcNAc(b1-4)GlcNAc
# Summary of the method: as §1
# [30] = molecular target: Fuc(a1-2)[Gal(a1-3)]Gal(b1-4)GlcNAc(b1-2)Man(a1-3)[Fuc(a1-2)[Gal(a1-3)]Gal(b1-4)GlcNAc(b1-2)Man(a1-6)]Man(b1-4)GlcNAc(b1-4)[Fuc(a1-6)]GlcNAc
# Summary of the method: as §1
# [31] = molecular target: Fuc(a1-2)[Gal(a1-3)]Gal(b1-4)GlcNAc(b1-3)GalNAc
# Summary of the method: as §1
# [32] = molecular target: Fuc(a1-2)[Gal(a1-3)]Gal(b1-4)GlcNAc(b1-3)[Fuc(a1-2)[Gal(a1-3)]Gal(b1-4)GlcNAc(b1-6)]GalNAc
# Summary of the method: as §1
# [33] = molecular target: Fuc(a1-2)[Gal(a1-3)]Gal(b1-4)GlcNAc(b1-6)GalNAc
# Summary of the method: as §1
# [34] = molecular target: Fuc(a1-2)[Gal(a1-3)]Gal(b1-4)[Fuc(a1-3)]Glc
# Summary of the method: as §1
# [35] = molecular target: Fuc(a1-2)[Gal(a1-3)]Gal(b1-4)[Fuc(a1-3)]GlcNAc
# Summary of the method: as §1
# [36] = molecular target: Fuc(a1-2)[Gal(a1-3)]Gal(b1-4)[Fuc(a1-3)]GlcNAc(b1-3)GalNAc
# Summary of the method: as §1
# [37] = molecular target: Fuc(a1-2)[Gal(a1-4)]Gal(b1-4)GlcNAc
# Summary of the method: as §1
# [38] = molecular target: Fuc(a1-2)[GalNAc(a1-3)]Gal
# Summary of the method: as §1
# [39] = molecular target: Fuc(a1-2)[GalNAc(a1-3)]Gal(b1-3)GalNAc(a1-3)[Fuc(a1-2)]Gal(b1-4)GlcNAc
# Summary of the method: as §1
# [40] = molecular target: Fuc(a1-2)[GalNAc(a1-3)]Gal(b1-3)GalNAc(b1-3)Gal(a1-4)Gal(b1-4)Glc
# Summary of the method: as §1
# [41] = molecular target: Fuc(a1-2)[GalNAc(a1-3)]Gal(b1-3)GlcNAc
# Summary of the method: as §1
# [42] = molecular target: Fuc(a1-2)[GalNAc(a1-3)]Gal(b1-3)GlcNAc(b1-2)Man(a1-3)[Fuc(a1-2)[GalNAc(a1-3)]Gal(b1-3)GlcNAc(b1-2)Man(a1-6)]Man(b1-4)GlcNAc(b1-4)GlcNAc
# Summary of the method: as §1
# [43] = molecular target: Fuc(a1-2)[GalNAc(a1-3)]Gal(b1-3)GlcNAc(b1-2)Man(a1-3)[Fuc(a1-2)[GalNAc(a1-3)]Gal(b1-3)GlcNAc(b1-2)Man(a1-6)]Man(b1-4)GlcNAc(b1-4)[Fuc(a1-6)]GlcNAc
# Summary of the method: as §1
binder,measurement,setting,value
B1,glycan array binding signal (z-score),[1],0.544
same,glycan array binding signal (z-score),[2],0.262
same,glycan array binding signal (z-score),[3],1.33
same,glycan array binding signal (z-score),[4],-0.394
same,glycan array binding signal (z-score),[5],0.07
same,glycan array binding signal (z-score),[6],0.473
same,glycan array binding signal (z-score),[7],-0.534
same,glycan array binding signal (z-score),[8],-0.457
same,glycan array binding signal (z-score),[9],-0.707
same,glycan array binding signal (z-score),[10],1.48
same,glycan array binding signal (z-score),[11],-0.398
same,glycan array binding signal (z-score),[12],0.223
same,glycan array binding signal (z-score),[13],1.16
same,glycan array binding signal (z-score),[14],-0.273
same,glycan array binding signal (z-score),[15],-0.764
same,glycan array binding signal (z-score),[16],-1.39
same,glycan array binding signal (z-score),[17],-0.586
same,glycan array binding signal (z-score),Fuc(a1-2)Gal6S(b1-4)Glc,-0.936
same,glycan array binding signal (z-score),[18],-0.779
same,glycan array binding signal (z-score),Fuc(a1-2)[Gal(a1-3)]Gal,-0.249
same,glycan array binding signal (z-score),[19],0.265
same,glycan array binding signal (z-score),[20],-0.362
same,glycan array binding signal (z-score),[21],-1.54
same,glycan array binding signal (z-score),[22],0.125
same,glycan array binding signal (z-score),[23],0.496
same,glycan array binding signal (z-score),[24],-0.899
same,glycan array binding signal (z-score),[25],-0.268
same,glycan array binding signal (z-score),[26],-0.228
same,glycan array binding signal (z-score),[27],-0.488
same,glycan array binding signal (z-score),[28],0.102
same,glycan array binding signal (z-score),[29],-0.934
same,glycan array binding signal (z-score),[30],0.894
same,glycan array binding signal (z-score),[31],0.23
same,glycan array binding signal (z-score),[32],0.902
same,glycan array binding signal (z-score),[33],0.219
same,glycan array binding signal (z-score),[34],0.057
same,glycan array binding signal (z-score),[35],0.649
same,glycan array binding signal (z-score),[36],1
same,glycan array binding signal (z-score),[37],0.219
same,glycan array binding signal (z-score),[38],-0.448
same,glycan array binding signal (z-score),[39],0.953
same,glycan array binding signal (z-score),[40],-0.374
same,glycan array binding signal (z-score),[41],0.474
same,glycan array binding signal (z-score),[42],-0.159
same,glycan array binding signal (z-score),[43],0.001

# Looked up one by one from the entries so far:
binder,measurement,setting,value
B1,glycan array binding signal (z-score),[37],0.219
same,glycan array binding signal (z-score),[23],0.496
